Source: PubChem BioAssay AID1487 (National Center for Advancing Translational Sciences (NCATS), 2009)
“And” between values parts separate entries of the source, which are not always exact repeats. Equal entries are not always repeated. The list shows a part of the results. These are further read-outs of the screen, such as a control signal, another cell line or another target. No call is given for them. Most of these compounds were active or inconclusive in the main read-out, so they are no random draw. The note in brackets gives the kind of curve behind each potency; many fits are weak.

Assay: qHTS Assay for Modulators of Lamin A Splicing
Details: HeLa LMNA splicing GFP/RFP minigene ratio, 48 h
Procedure, shortened: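 S3 HeLa cells stably expressing lamin A-EGFP splicing minigene plus DsRed2, 600 cells/well, 48 h compound exposure at 37C. Laser-scanning cytometry; analysed as GFP (500-530 nm)/RFP (575-640 nm) total intensity ratio; 0.5% DMSO vehicle.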

[1] = measured here: GFP splicing reporter channel
[2] = measured here: RFP viability control channel

SMILES	AC50 [1]	AC50 [2]
CC(C)NC[C@@H](O)COc1cccc2ccccc12	35.5 µM [falling, single point] and 12.6 µM [rising, partial curve]	35.5 µM [falling, single point] and 2.51 µM [rising, single point]
COc1cc(NC(=O)CCNS(=O)(=O)c2ccc3c(c2)CCN3C(=O)C2CC2)cc(OC)c1	–	0.562 µM [falling, full curve]
N#CC(C#N)=c1ccc2c(c1)NC1(CCCCC1)N=2	22.4 µM [falling, single point]	22.4 µM [falling, single point]
O=C(CCN1CCc2ccccc2CC1)c1ccc2c(c1)OCCO2	–	12.6 µM [rising, partial curve, poor fit]
Brc1csc(/C=N/Nc2nc3ccccc3s2)c1	–	0.0316 µM [rising, full curve, poor fit]
O=Cc1c(Sc2ccccn2)nc2ccccn2c1=O	–	35.5 µM [falling, single point]
COc1ccc(CN2C(=O)CCC2(C)C(=O)NC2CCCCCC2)cc1 (stereo not drawn)	–	0.0501 µM [falling, full curve, poor fit]
CCOc1ccccc1-c1nc(C(N)=O)c2[nH]c(=O)n(-c3ccccc3)c2n1	–	3.55 µM [falling, partial curve, poor fit]
CCc1cn([C@H]2C[C@H](O)[C@@H](CO)O2)c(=O)[nH]c1=O	0.0794 µM [rising, full curve, poor fit]	0.447 µM [rising, full curve, poor fit]
O=c1c2cnn(-c3ccccc3)c2nc(-c2ccco2)n1-c1ccccc1	5.01 µM [rising, partial curve, poor fit]	7.94 µM [rising, partial curve]
Cc1cc(C(=O)OC(C(=O)Nc2cccc(C(F)(F)F)c2)c2ccccc2)c(C)o1 (stereo not drawn)	–	35.5 µM [rising, single point]
CC(=O)NN1C(=O)/C(=C\c2ccc(Br)o2)SC1=S	35.5 µM [rising, single point]	35.5 µM [rising, single point]
Cn1cnc([N+](=O)[O-])c1S(=O)(=O)c1cccc(Cl)c1	–	35.5 µM [rising, single point]
CC(C)c1nnc(NC(=O)CSc2nc3ccccc3s2)s1	28.2 µM [rising, single point]	–
Cc1nnc2ccc(Oc3ccc(-c4ccccc4)cc3)nn12	–	17.8 µM [rising, partial curve]
COc1ccc(N2CCN(C(c3ccccc3)c3nnc(-c4ccccc4Cl)o3)CC2)cc1 (stereo not drawn)	0.01 µM [falling, full curve, poor fit]	–
CCn1c(SCC(=O)NNC(=O)c2ccccc2)nnc1-c1ccco1	3.98 µM [rising, single point]	5.01 µM [rising, partial curve]
NC(=O)C1CCN(C(=O)Cc2ccc([N+](=O)[O-])cc2)CC1	–	10 µM [rising, partial curve]
Cc1ccc(CS(=O)(=O)Cc2ccc(C(=O)NCCc3ccc(Cl)cc3)o2)cc1	3.55 µM [falling, full curve, poor fit]	–

SMILES	AC50 [1]	AC50 [2]
Cc1ccc(-c2noc(C3CCN(S(=O)(=O)c4ccc5c(c4)OCCO5)CC3)n2)o1	–	14.1 µM [rising, partial curve]
Cc1cc(=O)[nH]c(-n2nc(C)cc2C)n1	15.8 µM [falling, single point]	35.5 µM [falling, single point]
Cc1noc(C)c1S(=O)(=O)N1CCC(C(=O)N2CCN(c3ccccc3Cl)CC2)CC1	–	14.1 µM [rising, single point]
C[N+]1(C)CCC[C@@H](OC(=O)C(O)(c2ccccc2)c2ccccc2)C1	0.0562 µM [falling, full curve]	0.0316 µM [falling, partial curve, poor fit]
COc1ccccc1OCC(=O)NNC(=O)c1ccoc1C	0.00891 µM [rising, full curve, poor fit]	0.01 µM [rising, full curve, poor fit]
NC(=O)CSc1nccn1Cc1ccc2c(c1)OCO2	0.501 µM [falling, partial curve]	–
COc1ccccc1CNc1ncnc2ccc(-c3cccc(C#N)c3)cc12	14.1 µM [falling, partial curve]	11.2 µM [falling, single point]
COc1ccc2c(c1OC)C(=O)OC2Nc1nc(-c2cc3ccccc3oc2=O)cs1 (stereo not drawn)	–	12.6 µM [rising, single point]
C/C(CCc1ccc2c(c1)OCO2)=N\NC(=S)NC(C)C	–	35.5 µM [falling, partial curve, poor fit]
CN(C)C(=S)NC1(C)CCS(=O)(=O)C1 (stereo not drawn)	–	6.31 µM [rising, single point]
Fc1cccc(CSc2ccc3nnc(-c4ccccn4)n3n2)c1	–	0.02 µM [rising, full curve]
CC(C)OCC1CC(CC(=O)Nc2ccc([N+](=O)[O-])cc2)C(=O)O1 (stereo not drawn)	0.1 µM [falling, full curve, poor fit]	–
Cn1c(-c2sc3ccccc3c2Cl)n[nH]c1=S	–	14.1 µM [falling, partial curve]
S=C(NCC1CCCCC1)Nc1ccc(Oc2ccccc2)cc1	14.1 µM [rising, single point]	–
O=C(CSc1ccc2ccccc2c1)Nc1ccncc1	–	6.31 µM [rising, partial curve]
c1ccc(CNC23CC4CC(CC(C4)C2)C3)nc1	4.47 µM [falling, full curve, poor fit]	–
CCN(CC)S(=O)(=O)c1ccc(S(=O)(=O)Nc2ccc3c(c2)oc2ccccc23)cc1	14.1 µM [rising, partial curve]	22.4 µM [rising, single point]
Cc1cc(-c2ccc(C)c(S(=O)(=O)NCc3ccc(Cl)cc3)c2)on1	11.2 µM [falling, partial curve, poor fit]	–
c1ccc(-c2cc(-c3nc4ccccc4[nH]3)c3ccccc3n2)cc1	–	1.12 µM [falling, full curve, poor fit]

SMILES	AC50 [1]	AC50 [2]
CCC(=O)Nc1ccc2nc(SCC(=O)N3CCc4ccccc43)sc2c1	1.58 µM [rising, full curve]	–
COc1cc(C(=O)NC(=S)NCc2ccco2)cc(OC)c1OC	–	0.447 µM [falling, full curve, poor fit]
O=C(Nc1cccc(NC(=O)c2ccc(-c3ccc(Br)cc3)o2)c1)c1ccco1	–	11.2 µM [rising, partial curve]
COCCNC(=O)/C(C#N)=C/c1cccc(/C=C(\C#N)C(=O)NCCOC)c1	35.5 µM [falling, single point]	35.5 µM [falling, single point]
O=C(CSCc1cccc(CSCC(=O)Nc2ccc3ccccc3c2)n1)Nc1ccc2ccccc2c1	14.1 µM [rising, partial curve]	12.6 µM [rising, partial curve]
CCCCn1c(CCC)nc([N+](=O)[O-])c1Sc1ccc(Cl)cn1	12.6 µM [falling, partial curve]	35.5 µM [falling, single point]
C/C(=N\NC(=O)c1c[nH]c2ccccc12)c1ccccn1	–	6.31 µM [rising, partial curve]
O=C(NCc1ccc(Cl)cc1)C(=O)NCC(c1ccco1)S(=O)(=O)c1cccs1 (stereo not drawn)	25.1 µM [falling, single point]	0.01 µM [falling, full curve, poor fit]
O=C(N/N=C/c1ccccc1O)c1cccc(C(F)(F)F)c1	–	10 µM [rising, partial curve]
Cc1cc(C(=O)CSc2nnc(-c3ccccc3)o2)c(C)n1CC1COc2ccccc2O1 (stereo not drawn)	35.5 µM [falling, partial curve, poor fit]	–
CC[n+]1ccc(C)c2cc(S(=O)C(F)(F)F)ccc21 (stereo not drawn)	11.2 µM [rising, partial curve]	–
CC(C)(C)NC(=O)c1cccc(NC(=O)Cc2ccc(Br)cc2)c1	–	25.1 µM [rising, single point]
CCOC(=O)C(C)(C)N(Cc1cccc(C)c1)S(=O)(=O)c1ccc(Cl)c([N+](=O)[O-])c1	–	11.2 µM [rising, partial curve, poor fit]
CCc1ccc(NC(=O)C2CCCN(S(=O)(=O)c3c(C)[nH]c(=O)[nH]c3=O)C2)cc1 (stereo not drawn)	0.178 µM [rising, full curve, poor fit]	–
Cc1cc(C)n(-c2nc(NCCO)c3c4c(sc3n2)CCCC4)n1	–	10 µM [rising, partial curve]
CSc1ccc(S(=O)(=O)NCCOc2ccccc2C)cc1	–	10 µM [rising, partial curve]
Cc1cc(=O)n2c(C(=O)Nc3ccc(C(=O)OC(C)C)cc3)c(C(=O)Nc3ccccc3)sc2n1	17.8 µM [falling, single point]	35.5 µM [falling, single point]
Cc1nc2nc(C)c(CCC(=O)NCCCN3CCN(c4cccc(Cl)c4)CC3)c(C)n2n1	0.708 µM [rising, full curve, poor fit]	0.501 µM [rising, full curve, poor fit]

A draw from above in order of formula weight, rising.
SMILES	AC50 [1]	AC50 [2]
O=C(N/N=C/c1ccccc1O)c1cccc(C(F)(F)F)c1	–	10 µM [rising, partial curve]
O=C(NCc1ccc(Cl)cc1)C(=O)NCC(c1ccco1)S(=O)(=O)c1cccs1 (stereo not drawn)	25.1 µM [falling, single point]	0.01 µM [falling, full curve, poor fit]
CCOC(=O)C(C)(C)N(Cc1cccc(C)c1)S(=O)(=O)c1ccc(Cl)c([N+](=O)[O-])c1	–	11.2 µM [rising, partial curve, poor fit]
Cc1cc(=O)n2c(C(=O)Nc3ccc(C(=O)OC(C)C)cc3)c(C(=O)Nc3ccccc3)sc2n1	17.8 µM [falling, single point]	35.5 µM [falling, single point]
